Source: article PMC10368723
No constants are given. Whether binding was seen depends on the method and setting. In cells and extracts the contact can be indirect. Some entries that bind do so weakly or less than the wild type. One block for each substance: values may come before it.

How the values were obtained:
HA- and flag-tagged MET = HA- and flag-tagged MET (UniProt P08581); test: co-IP; 293T HGF KO cells cotransfected with HA- and flag-tagged MET; lysates stimulated or not with MET404 (1 µg/ml); immunoprecipitated with anti-HA or anti-flag antibody, immunoblotted with anti-flag or anti-HA antibody
LgBit- and SmBit-MET = LgBit- and SmBit-MET (UniProt P08581); test: split reporter; NanoBit system, LgBit and SmBit on the C-terminus of full-length MET, 293T HGF KO cells, live-cell luminescence before and after purified MET404 (1 µg/ml), up to 45 min
[1] = target: MET404 (endogenous, GSC23 cells) (human (endogenous in GSC23)) (UniProt P08581); test: co-IP; whole GSC23 cell lysates, immunoprecipitation with anti-MET404 and anti-MET antibodies, immunoblotting with anti-MET404 and anti-MET antibodies (mutual IP)

binding (HA- and flag-tagged MET): binds
Substance: HA- and flag-tagged MET (from UniProt P08581 25-1390) (receptor)

binding (LgBit- and SmBit-MET): binds
Substance: LgBit- and SmBit-MET (from UniProt P08581 25-1390) (receptor)

binding [1]: binds
Substance: MET receptor (endogenous, GSC23 cells) (from UniProt P08581 25-1390)
